The other results are listed elsewhere or left out.
How the values were obtained:
Assay in all cases: log2 fold change, soluble protein after heating vs DMSO (PISA); higher = thermal stabilisation; K562 lysate, 10 uM; active = over 0.2 and 3.5 SD of the protein, either way, in both replicates (recomputed)
[1] = compound: C1=CC=C(C=C1)[C@H](COC2=CC3=C(C=C2)NC(=O)N3)NC(=O)C4=CC=CN(C4=O)CC5=CC(=C(C=C5)F)F
Summary of the method: (§1)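 The values are log-two fold changes in thermal stability compared with solvent controls and come from duplicates. They were obtained by TMTpro 16plex LC-MS/MS, with channel sums equalised, on the supernatant after 21,000xg for 90 min. That supernatant came from crude K562 extract at 1 mg/mL protein treated with 10 μM compound for 30 min, heated for 3 min across 48°C-58°C, pooled and brought to 0.5% NP-40 at 4°C.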

Chains of the proteins cited; added tags and fusions are not shown. Lines headed by an entry give the natural chain unless they say otherwise; changes in a name come on top.
UniProt Q9NRG1: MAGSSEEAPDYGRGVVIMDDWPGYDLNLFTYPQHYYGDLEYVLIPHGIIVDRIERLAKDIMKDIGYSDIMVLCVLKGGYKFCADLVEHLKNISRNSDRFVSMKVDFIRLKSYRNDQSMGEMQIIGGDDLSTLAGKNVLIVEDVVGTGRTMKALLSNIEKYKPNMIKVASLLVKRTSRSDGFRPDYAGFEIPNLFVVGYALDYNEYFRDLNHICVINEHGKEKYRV
UniProt P48634: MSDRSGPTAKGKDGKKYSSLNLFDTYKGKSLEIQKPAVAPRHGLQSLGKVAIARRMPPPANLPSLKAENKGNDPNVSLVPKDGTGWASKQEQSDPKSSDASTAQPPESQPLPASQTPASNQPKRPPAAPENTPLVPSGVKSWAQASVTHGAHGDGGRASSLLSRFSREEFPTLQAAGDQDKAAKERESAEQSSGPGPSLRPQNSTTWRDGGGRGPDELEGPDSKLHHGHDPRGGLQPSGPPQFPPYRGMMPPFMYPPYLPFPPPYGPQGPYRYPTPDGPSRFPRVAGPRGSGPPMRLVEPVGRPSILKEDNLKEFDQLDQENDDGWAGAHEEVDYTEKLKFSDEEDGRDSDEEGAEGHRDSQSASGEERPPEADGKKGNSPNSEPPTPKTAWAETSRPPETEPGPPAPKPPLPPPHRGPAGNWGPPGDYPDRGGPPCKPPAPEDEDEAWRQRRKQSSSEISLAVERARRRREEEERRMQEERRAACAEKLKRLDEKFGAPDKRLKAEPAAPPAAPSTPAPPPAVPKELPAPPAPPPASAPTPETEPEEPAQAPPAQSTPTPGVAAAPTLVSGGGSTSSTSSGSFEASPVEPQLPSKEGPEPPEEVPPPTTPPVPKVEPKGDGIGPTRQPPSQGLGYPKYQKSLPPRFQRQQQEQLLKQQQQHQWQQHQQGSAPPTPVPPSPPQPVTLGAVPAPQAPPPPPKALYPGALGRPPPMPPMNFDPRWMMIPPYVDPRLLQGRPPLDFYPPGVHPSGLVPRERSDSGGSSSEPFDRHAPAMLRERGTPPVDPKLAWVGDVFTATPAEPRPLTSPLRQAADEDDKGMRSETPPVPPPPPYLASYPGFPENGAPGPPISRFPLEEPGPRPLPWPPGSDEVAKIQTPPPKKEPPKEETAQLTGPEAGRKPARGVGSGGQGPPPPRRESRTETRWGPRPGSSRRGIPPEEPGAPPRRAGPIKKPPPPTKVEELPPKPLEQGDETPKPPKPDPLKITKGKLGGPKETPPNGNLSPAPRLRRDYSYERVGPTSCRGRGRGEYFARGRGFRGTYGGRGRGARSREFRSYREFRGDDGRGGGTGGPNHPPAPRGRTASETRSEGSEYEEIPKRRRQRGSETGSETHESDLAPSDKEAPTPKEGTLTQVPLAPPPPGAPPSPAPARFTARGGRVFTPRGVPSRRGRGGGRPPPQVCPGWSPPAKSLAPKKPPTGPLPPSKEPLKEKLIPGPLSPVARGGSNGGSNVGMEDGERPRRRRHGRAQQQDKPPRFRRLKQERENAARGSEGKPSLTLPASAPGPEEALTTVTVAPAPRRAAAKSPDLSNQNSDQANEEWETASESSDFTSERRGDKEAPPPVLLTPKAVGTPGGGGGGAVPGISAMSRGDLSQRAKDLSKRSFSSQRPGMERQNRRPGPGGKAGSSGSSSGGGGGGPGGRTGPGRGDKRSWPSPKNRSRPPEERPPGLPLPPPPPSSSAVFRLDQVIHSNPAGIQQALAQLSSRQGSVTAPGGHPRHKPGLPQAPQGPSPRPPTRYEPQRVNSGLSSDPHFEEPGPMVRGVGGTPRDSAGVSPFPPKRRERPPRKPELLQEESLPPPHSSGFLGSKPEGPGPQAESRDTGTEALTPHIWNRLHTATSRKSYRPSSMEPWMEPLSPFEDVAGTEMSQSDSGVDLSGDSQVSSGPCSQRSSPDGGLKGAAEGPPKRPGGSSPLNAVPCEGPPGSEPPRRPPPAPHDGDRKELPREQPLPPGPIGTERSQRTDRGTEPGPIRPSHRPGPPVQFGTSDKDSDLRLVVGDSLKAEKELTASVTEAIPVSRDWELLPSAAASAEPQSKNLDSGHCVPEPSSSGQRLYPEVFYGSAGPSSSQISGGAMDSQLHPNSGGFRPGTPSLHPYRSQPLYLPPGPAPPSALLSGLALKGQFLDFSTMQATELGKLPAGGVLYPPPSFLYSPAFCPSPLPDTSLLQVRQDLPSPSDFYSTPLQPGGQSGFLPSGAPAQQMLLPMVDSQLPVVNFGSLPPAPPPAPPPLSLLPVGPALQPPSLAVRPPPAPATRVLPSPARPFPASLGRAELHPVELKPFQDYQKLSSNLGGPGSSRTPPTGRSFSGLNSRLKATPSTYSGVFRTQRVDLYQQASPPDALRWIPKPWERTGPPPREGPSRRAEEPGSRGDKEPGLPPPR
UniProt Q12974: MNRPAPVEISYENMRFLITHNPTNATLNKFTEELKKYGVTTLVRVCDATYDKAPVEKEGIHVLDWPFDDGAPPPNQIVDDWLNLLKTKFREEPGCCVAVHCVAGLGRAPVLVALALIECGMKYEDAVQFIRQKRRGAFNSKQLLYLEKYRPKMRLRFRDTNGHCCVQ
UniProt P25787: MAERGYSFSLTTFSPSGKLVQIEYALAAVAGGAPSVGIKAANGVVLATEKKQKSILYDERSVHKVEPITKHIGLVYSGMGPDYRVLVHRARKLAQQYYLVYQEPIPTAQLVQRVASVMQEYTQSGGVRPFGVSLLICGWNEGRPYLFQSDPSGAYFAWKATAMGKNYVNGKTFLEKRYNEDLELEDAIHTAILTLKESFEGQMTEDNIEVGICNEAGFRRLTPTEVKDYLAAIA
UniProt O95456: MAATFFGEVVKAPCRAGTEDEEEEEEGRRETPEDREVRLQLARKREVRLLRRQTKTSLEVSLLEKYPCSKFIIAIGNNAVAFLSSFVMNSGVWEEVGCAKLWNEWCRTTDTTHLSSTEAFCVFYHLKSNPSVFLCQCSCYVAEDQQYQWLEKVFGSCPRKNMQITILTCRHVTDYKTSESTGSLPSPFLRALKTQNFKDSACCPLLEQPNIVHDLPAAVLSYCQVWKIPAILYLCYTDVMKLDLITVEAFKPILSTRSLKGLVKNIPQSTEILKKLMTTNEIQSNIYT
UniProt Q9Y3E5: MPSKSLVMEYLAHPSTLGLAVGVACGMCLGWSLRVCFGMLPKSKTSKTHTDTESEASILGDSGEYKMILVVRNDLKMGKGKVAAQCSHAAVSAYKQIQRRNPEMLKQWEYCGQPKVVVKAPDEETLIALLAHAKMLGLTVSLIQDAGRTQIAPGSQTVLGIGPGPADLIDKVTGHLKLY
UniProt P53801: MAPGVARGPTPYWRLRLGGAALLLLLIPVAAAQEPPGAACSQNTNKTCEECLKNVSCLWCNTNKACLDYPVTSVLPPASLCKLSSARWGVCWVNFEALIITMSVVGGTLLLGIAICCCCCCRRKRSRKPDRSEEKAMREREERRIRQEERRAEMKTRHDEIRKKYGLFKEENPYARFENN
UniProt O00233: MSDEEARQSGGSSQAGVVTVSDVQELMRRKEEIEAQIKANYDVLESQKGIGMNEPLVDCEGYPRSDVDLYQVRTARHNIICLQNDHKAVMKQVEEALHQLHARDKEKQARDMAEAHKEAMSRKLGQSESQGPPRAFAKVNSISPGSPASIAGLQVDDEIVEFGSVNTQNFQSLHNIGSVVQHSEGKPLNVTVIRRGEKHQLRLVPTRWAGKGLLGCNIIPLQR
UniProt P20618: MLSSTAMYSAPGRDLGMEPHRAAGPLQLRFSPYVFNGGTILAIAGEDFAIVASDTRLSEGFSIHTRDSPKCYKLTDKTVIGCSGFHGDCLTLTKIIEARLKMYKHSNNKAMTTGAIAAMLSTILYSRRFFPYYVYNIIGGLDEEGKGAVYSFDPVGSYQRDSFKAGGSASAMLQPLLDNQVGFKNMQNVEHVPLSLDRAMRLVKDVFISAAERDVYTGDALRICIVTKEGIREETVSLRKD
UniProt Q9UKA9: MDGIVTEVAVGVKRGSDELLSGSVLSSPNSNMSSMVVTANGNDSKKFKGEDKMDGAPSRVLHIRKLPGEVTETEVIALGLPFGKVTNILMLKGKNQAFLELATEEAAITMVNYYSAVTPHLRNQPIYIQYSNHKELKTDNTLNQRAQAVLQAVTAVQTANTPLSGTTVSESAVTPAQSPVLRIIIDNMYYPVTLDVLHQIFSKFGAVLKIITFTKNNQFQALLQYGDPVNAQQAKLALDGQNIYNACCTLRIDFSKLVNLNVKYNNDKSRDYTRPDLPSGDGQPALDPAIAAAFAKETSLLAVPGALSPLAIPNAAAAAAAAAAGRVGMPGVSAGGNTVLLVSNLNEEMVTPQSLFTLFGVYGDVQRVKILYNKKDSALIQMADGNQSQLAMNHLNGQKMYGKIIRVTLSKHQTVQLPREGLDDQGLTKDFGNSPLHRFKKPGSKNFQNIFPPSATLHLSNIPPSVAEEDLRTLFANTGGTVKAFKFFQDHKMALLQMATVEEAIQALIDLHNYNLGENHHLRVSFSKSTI
UniProt Q86TP1: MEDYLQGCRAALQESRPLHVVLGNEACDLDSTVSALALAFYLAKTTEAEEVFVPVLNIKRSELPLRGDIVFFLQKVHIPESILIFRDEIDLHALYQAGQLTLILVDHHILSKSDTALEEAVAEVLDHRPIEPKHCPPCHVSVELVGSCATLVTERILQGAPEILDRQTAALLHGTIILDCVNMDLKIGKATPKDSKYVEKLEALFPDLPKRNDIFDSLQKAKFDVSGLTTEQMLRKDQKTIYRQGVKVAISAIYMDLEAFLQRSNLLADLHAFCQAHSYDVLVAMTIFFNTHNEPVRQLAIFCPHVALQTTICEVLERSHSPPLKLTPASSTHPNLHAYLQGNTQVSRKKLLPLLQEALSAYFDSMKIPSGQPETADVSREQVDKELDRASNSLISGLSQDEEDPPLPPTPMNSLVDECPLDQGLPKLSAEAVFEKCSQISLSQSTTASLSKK
UniProt Q9P2W1: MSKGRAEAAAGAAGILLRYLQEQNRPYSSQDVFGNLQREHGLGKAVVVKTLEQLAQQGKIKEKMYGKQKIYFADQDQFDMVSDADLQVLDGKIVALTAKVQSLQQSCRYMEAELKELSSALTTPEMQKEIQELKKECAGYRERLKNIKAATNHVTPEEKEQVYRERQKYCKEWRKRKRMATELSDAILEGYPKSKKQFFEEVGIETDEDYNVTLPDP
UniProt O00232: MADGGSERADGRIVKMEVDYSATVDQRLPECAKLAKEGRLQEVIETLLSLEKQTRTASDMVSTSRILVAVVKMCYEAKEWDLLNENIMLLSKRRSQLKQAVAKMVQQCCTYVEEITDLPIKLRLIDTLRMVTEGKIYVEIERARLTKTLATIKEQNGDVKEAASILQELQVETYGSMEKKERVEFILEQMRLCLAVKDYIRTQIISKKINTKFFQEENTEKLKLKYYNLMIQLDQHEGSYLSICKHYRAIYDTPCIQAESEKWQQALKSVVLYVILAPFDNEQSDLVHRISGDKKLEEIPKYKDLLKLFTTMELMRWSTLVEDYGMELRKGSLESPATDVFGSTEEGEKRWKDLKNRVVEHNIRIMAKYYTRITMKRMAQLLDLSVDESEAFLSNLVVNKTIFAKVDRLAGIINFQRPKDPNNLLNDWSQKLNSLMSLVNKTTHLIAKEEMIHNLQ
UniProt P62333, whole entry, looked up: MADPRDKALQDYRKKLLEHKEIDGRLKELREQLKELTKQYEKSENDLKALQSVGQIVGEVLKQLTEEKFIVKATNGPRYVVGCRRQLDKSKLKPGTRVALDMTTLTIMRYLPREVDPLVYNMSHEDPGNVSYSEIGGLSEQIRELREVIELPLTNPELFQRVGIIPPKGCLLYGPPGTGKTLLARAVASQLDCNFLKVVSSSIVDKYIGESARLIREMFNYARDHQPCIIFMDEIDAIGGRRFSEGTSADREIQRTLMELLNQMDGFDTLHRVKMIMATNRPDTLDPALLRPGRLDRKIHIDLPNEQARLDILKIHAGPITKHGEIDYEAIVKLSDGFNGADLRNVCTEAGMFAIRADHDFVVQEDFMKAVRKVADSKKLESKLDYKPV
UniProt P11908: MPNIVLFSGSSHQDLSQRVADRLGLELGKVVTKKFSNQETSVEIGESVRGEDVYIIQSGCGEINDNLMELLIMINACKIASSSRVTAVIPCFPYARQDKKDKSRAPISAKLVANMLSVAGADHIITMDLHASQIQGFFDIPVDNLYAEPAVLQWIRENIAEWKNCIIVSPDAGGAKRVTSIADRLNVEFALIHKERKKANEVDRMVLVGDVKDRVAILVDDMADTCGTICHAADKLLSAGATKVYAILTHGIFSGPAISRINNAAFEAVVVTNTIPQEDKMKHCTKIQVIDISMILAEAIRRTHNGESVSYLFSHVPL
UniProt O95997: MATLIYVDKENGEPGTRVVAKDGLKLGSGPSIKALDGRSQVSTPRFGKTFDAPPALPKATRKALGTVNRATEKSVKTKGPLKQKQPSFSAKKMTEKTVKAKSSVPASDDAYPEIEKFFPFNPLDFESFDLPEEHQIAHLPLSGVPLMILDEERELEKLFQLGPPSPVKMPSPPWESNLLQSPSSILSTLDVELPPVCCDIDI

[2] = compound: CC1=C(SC2=C1C(=N[C@H](C3=NN=C(N32)C)CC(=O)N)C4=CC=C(C=C4)Cl)C
Summary of the method: as §1

[3] = compound: CC1=C2C(=CC=C1)N=C(N(C2=O)C3=CC=CC=C3C)CN4C=NC5=C(N=CN=C54)N
Summary of the method: as §1

[4] = compound: Cc1sc2c(c1C)C(c1ccc(Cl)cc1)=N[C@@H](CC(=O)OC(C)(C)C)c1nnc(C)n1-2
Summary of the method: as §1

[5] = compound: c1ccc([C@@H]2C[C@H]2NC2CCNCC2)cc1
Summary of the method: as §1

Measured: log2 fold change

PRTFDC1 (UniProt Q9NRG1)
inactive: [1] 0.019 | [2] -0.023 | [3] -0.013 | [4] -0.002 | [5] 0.019

PRRC2A (UniProt P48634)
inactive: [1] -0.047 | [2] 0.003 | [3] 0.001 | [4] 0.017 | [5] -0.02

PUDP isoform 4 (UniProt Q08623)
inactive: [1] -0.06 | [2] -0.045 | [3] -0.015 | [4] -0.039 | [5] -0.076

PTP4A2 (UniProt Q12974)
inactive: [1] 0.041 | [2] -0.039 | [3] 0.015 | [4] 0.113 | [5] -0.407

PSMA2 (UniProt P25787)
inactive: [1] 0 | [2] 0.029 | [3] -0.011 | [4] -0.014 | [5] 0.001

PTPN2 (UniProt P17706)
inactive: [1] -0.031 | [2] 0.017 | [3] 0.023 | [4] 0.007 | [5] 0.012

PSMG1 (UniProt O95456)
inactive: [1] 0.034 | [2] -0.027 | [3] 0.029 | [4] -0.046 | [5] 0.01

PUF60 (UniProt Q9UHX1)
inactive: [1] -0.017 | [2] 0.006 | [3] 0.004 | [4] 0.028 | [5] 0.059

PTRH2 (UniProt Q9Y3E5)
inactive: [1] -0.026 | [2] -0.018 | [3] -0.051 | [4] 0.002 | [5] 0.014

PTTG1IP (UniProt P53801)
inactive: [1] -0.029 | [2] 0.007 | [3] -0.299 | [4] -0.183 | [5] -0.034

PSEN1 (UniProt P49768)
inactive: [1] 0.076 | [2] -0.043 | [3] 0.041 | [4] -0.026 | [5] 0.055

PUS7 isoform 2 (UniProt Q96PZ0)
inactive: [1] 0.007 | [2] 0.02 | [3] 0.004 | [4] -0.053 | [5] 0.017

PURB (UniProt Q96QR8)
inactive: [1] 0.111 | [2] -0.075 | [3] -0.008 | [4] -0.015 | [5] -0.073

PSMC1 (UniProt P62191)
inactive: [1] 0 | [2] 0.012 | [3] 0.014 | [4] 0.042 | [5] -0.027

PSMF1 (UniProt Q92530)
inactive: [1] -0.032 | [2] 0.018 | [3] -0.017 | [4] -0.004 | [5] -0.21

PSMD9 (UniProt O00233)
inactive: [1] 0.028 | [2] -0.007 | [3] 0.008 | [4] -0.017 | [5] -0.026

PRPH isoform 2 (UniProt P41219)
inactive: [1] 0.002 | [2] -0.006 | [3] 0.03 | [4] -0.059 | [5] 0.119

PSME4 (UniProt Q14997)
inactive: [1] 0.005 | [2] -0.009 | [3] 0.066 | [4] -0.003 | [5] -0.025

PSMD6 isoform 4 (UniProt Q15008)
inactive: [1] -0.007 | [2] 0.018 | [3] -0.003 | [4] -0.011 | [5] 0.026

PSMB1 (UniProt P20618)
inactive: [1] 0.03 | [2] 0.006 | [3] 0.003 | [4] -0.037 | [5] 0.017

PTBP2 isoform 2 (UniProt Q9UKA9)
inactive: [1] -0.051 | [2] 0.059 | [3] 0.04 | [4] -0.039 | [5] -0.17

PRUNE1 (UniProt Q86TP1)
inactive: [1] 0.016 | [2] -0.013 | [3] 0.018 | [4] 0.034 | [5] -0.003

PSMC3IP (UniProt Q9P2W1)
inactive: [1] -0.009 | [2] 0.052 | [3] 0.037 | [4] -0.013 | [5] 0.03

PSMD12 (UniProt O00232)
inactive: [1] -0.004 | [2] 0.014 | [3] 0.009 | [4] 0.034 | [5] 0.053

PUM1 isoform 3 (UniProt Q14671)
inactive: [1] -0.057 | [2] 0.048 | [3] 0.024 | [4] -0.003 | [5] 0.054

PTPRC (UniProt P08575)
inactive: [1] 0.009 | [2] 0.014 | [3] -0.019 | [4] -0.021 | [5] -0.029

PTBP3 isoform 4 (UniProt O95758)
inactive: [1] -0.001 | [2] 0.053 | [3] 0.016 | [4] 0.067 | [5] 0.055

PSMC6 (UniProt P62333)
inactive: [1] -0.011 | [2] 0.013 | [3] 0.013 | [4] 0.027 | [5] 0.018

Copied from the listing (2 entries):
PSMD12 (UniProt O00232)
inactive: [1] -0.004 | [2] 0.014 | [3] 0.009 | [4] 0.034 | [5] 0.053

PUM1 isoform 3 (UniProt Q14671)
inactive: [1] -0.057 | [2] 0.048 | [3] 0.024 | [4] -0.003 | [5] 0.054

The list continues.

PSMD2 (UniProt Q13200)
inactive: [1] -0.009 | [2] 0.02 | [3] 0.007 | [4] -0.005 | [5] 0.054

PRPS2 isoform 2 (UniProt P11908)
inactive: [1] -0.031 | [2] 0.019 | [3] 0.004 | [4] 0.022 | [5] 0.02

PTTG1 (UniProt O95997)
inactive: [1] 0.093 | [2] -0.025 | [3] -0.049 | [4] -0.01 | [5] -0.113

PUF60 isoform 2 (UniProt Q9UHX1)
inactive: [1] 0.091 | [2] 0.109 | [3] 0.035 | [5] 0.238
